Results are given in words; binding and its absence hold for the method and conditions named. In cells and extracts the contact can be indirect. A result given as binding can be weak or reduced; the word gives no strength. Where a sequence is shown, tags or fusion partners need not be part of it.
Target: Mam1D with C-terminal Strep-tag (co-expression construct) (Mycobacterium tuberculosis)
Experiment: pull-down + SEC

B1: LucA without tag (co-expression construct) (protein, UniProt O69690 1-254)
chain: MGRKVAVLWHASFSIGAGVLYFYFVLPRWPELMGDTGHSLGTGLRIATGALVGLAALPVVFTLLRTRKPELGTPQLALSMRIWSIMAHVLAGALIVGTAISEVWLSLDAAGQWLFGIYGAAAAIAVLGFFGFYLSFVAELPPPPPKPLKPKKPKQRRLRRKKTAKGDEAEPEAAEEAENTELAAQEDEEAVEAPPESIESPGGEPESATREAPAAETATAEEPRGGLRNRRPTGKTSHRRRRTRSGVQVAKVDE
  binding: binds

— paper doi:10.1101/2025.03.26.645568
